This assay addresses TAR DNA-binding protein-43 (TDP-43), endogenously tagged with eGFP (human (endogenous in BJFF.6 iPSC-derived neurons)) (UniProt Q13148). The assay is described as follows: affinity purification with mass spectrometry.

Protein sequences, listed by entry. Tags and fused reporters are not part of them.
UniProt Q13148: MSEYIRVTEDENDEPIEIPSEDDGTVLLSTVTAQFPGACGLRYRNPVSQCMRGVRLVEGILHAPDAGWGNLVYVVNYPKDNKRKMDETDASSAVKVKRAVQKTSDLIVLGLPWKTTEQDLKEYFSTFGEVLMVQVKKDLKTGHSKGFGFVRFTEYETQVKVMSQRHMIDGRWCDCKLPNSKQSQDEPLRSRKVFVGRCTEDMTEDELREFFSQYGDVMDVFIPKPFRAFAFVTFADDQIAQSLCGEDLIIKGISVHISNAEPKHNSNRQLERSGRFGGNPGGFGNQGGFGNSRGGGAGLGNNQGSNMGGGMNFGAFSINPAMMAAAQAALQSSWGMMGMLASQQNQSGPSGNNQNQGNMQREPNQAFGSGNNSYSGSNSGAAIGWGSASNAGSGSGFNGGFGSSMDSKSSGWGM

Results are given in words; binding and its absence hold for the method and conditions named. Binding seen in cells or lysates may run through a third protein. Here binding means that the protein was enriched with, or labelled near, the bait; the list need not be complete.

B1: MATR3 (protein, UniProt P43243 1-847)
chain: MSKSFQQSSLSRDSQGHGRDLSAAGIGLLAAATQSLSMPASLGRMNQGTARLASLMNLGMSSSLNQQGAHSALSSASTSSHNLQSIFNIGSRGPLPLSSQHRGDADQASNILASFGLSARDLDELSRYPEDKITPENLPQILLQLKRRRTEEGPTLSYGRDGRSATREPPYRVPRDDWEEKRHFRRDSFDDRGPSLNPVLDYDHGSRSQESGYYDRMDYEDDRLRDGERCRDDSFFGETSHNYHKFDSEYERMGRGPGPLQERSLFEKKRGAPPSSNIEDFHGLLPKGYPHLCSICDLPVHSNKEWSQHINGASHSRRCQLLLEIYPEWNPDNDTGHTMGDPFMLQQSTNPAPGILGPPPPSFHLGGPAVGPRGNLGAGNGNLQGPRHMQKGRVETSRVVHIMDFQRGKNLRYQLLQLVEPFGVISNHLILNKINEAFIEMATTEDAQAAVDYYTTTPALVFGKPVRVHLSQKYKRIKKPEGKPDQKFDQKQELGRVIHLSNLPHSGYSDSAVLKLAEPYGKIKNYILMRMKSQAFIEMETREDAMAMVDHCLKKALWFQGRCVKVDLSEKYKKLVLRIPNRGIDLLKKDKSRKRSYSPDGKESPSDKKSKTDGSQKTESSTEGKEQEEKSGEDGEKDTKDDQTEQEPNMLLESEDELLVDEEEAAALLESGSSVGDETDLANLGDVASDGKKEPSDKAVKKDGSASAAAKKKLKKVDKIEELDQENEAALENGIKNEENTEPGAESSENADDPNKDTSENADGQSDENKDDYTIPDEYRIGPYQPNVPVGIDYVIPKTGFYCKLCSLFYTNEEVAKNTHCSSLPHYQKLKKFLNKLAEERRQKKET
For B1, the binding result is listed as “binds”.

(Values after article doi:10.1101/2025.09.29.679403.)
